Values from PubChem BioAssay AID504774 (Drosophila RNAi Screening Center, 2011).
Aim: 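Fly genes whose loss alters survival after alkylation damage to DNA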 (primary screen). Cells: Drosophila Kc167 cells. Reagent: long dsRNA against Drosophila genes, about 0.25 µg dsRNA per well. Time to read-out: about 6 days: 3 days knock-down, then 3 days with or without MMS. Conditions: methyl methanesulphonate 0.004% (w/v) for 3 days after knock-down. Read-out: 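Viability in wells given MMS, read as ATP luminescence, normalised by quantiles plate by plate and averaged across replicates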. Reading the numbers: mean viability with MMS and viability with MMS: higher = more surviving cells after MMS.
The screen tested about 23,000 reagents; shown is a random part of those with a known target gene and a result. 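Values are quantile-normalised luminescence on an arbitrary scale; higher means more cells surviving MMS.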 Not all columns of the deposit are shown.

CecA2 [DRSC16604]
- mean viability with MMS: 3.48e6
- viability with MMS, replicate 1: 3.90e6

CG12605 [DRSC08286]
- mean viability with MMS: 3.46e6
- viability with MMS, replicate 1: 3.99e6

Ppn [DRSC15328]
- mean viability with MMS: 3.65e6
- viability with MMS, replicate 1: 4.10e6

CG10132 [DRSC02013]
- mean viability with MMS: 3.65e6
- viability with MMS, replicate 1: 4.00e6

CG14818 [DRSC18548]
- mean viability with MMS: 3.57e6
- viability with MMS, replicate 1: 4.08e6

karr [DRSC20681]
- mean viability with MMS: 3.57e6
- viability with MMS, replicate 1: 4.05e6

Wdr82 [DRSC02595]
- mean viability with MMS: 3.62e6
- viability with MMS, replicate 1: 4.39e6

Wdr82 [DRSC21723]
- mean viability with MMS: 3.21e6
- viability with MMS, replicate 1: 3.75e6

Nepl11 [DRSC12333]
- mean viability with MMS: 3.58e6
- viability with MMS, replicate 1: 4.04e6

v [DRSC20383]
- mean viability with MMS: 3.66e6
- viability with MMS, replicate 1: 4.37e6

CG31272 [DRSC16058]
- mean viability with MMS: 3.62e6
- viability with MMS, replicate 1: 4.04e6

beta-Man [DRSC12208]
- mean viability with MMS: 3.67e6
- viability with MMS, replicate 1: 4.07e6

beta-Man [DRSC12209]
- mean viability with MMS: 3.62e6
- viability with MMS, replicate 1: 4.04e6

Vinc [DRSC18728]
- mean viability with MMS: 3.54e6
- viability with MMS, replicate 1: 4.05e6

Cnx14D [DRSC20214]
- mean viability with MMS: 3.51e6
- viability with MMS, replicate 1: 3.94e6

Cpes [DRSC04475]
- mean viability with MMS: 3.10e6
- viability with MMS, replicate 1: 3.65e6

cnc [DRSC14676]
- mean viability with MMS: 3.64e6
- viability with MMS, replicate 1: 4.13e6

cnc [DRSC15289]
- mean viability with MMS: 3.34e6
- viability with MMS, replicate 1: 3.84e6

cnc [DRSC15600]
- mean viability with MMS: 3.46e6
- viability with MMS, replicate 1: 3.90e6

cnc [DRSC15601]
- mean viability with MMS: 3.44e6
- viability with MMS, replicate 1: 3.77e6

Only “mean viability with MMS” (5 entries from above):
CG31272 [DRSC16058] = 3.62e6
beta-Man [DRSC12208] = 3.67e6
beta-Man [DRSC12209] = 3.62e6
Vinc [DRSC18728] = 3.54e6
Cnx14D [DRSC20214] = 3.51e6

Continued:
CG3288 [DRSC11745]
- mean viability with MMS: 3.68e6
- viability with MMS, replicate 1: 4.14e6

st [DRSC11399]
- mean viability with MMS: 3.39e6
- viability with MMS, replicate 1: 3.82e6

TER94 [DRSC07560]
- mean viability with MMS: 3.26e6
- viability with MMS, replicate 1: 3.73e6

spn-B [DRSC17063]
- mean viability with MMS: 3.44e6
- viability with MMS, replicate 1: 3.95e6

CG32551 [DRSC19259]
- mean viability with MMS: 3.51e6
- viability with MMS, replicate 1: 3.96e6

CG12942 [DRSC06253]
- mean viability with MMS: 3.47e6
- viability with MMS, replicate 1: 3.96e6

BOD1 [DRSC15824]
- mean viability with MMS: 3.48e6
- viability with MMS, replicate 1: 3.92e6

REPTOR [DRSC14626]
- mean viability with MMS: 3.47e6
- viability with MMS, replicate 1: 3.91e6

MME1 [DRSC02714]
- mean viability with MMS: 3.41e6
- viability with MMS, replicate 1: 3.80e6

CG14302 [DRSC14781]
- mean viability with MMS: 3.70e6
- viability with MMS, replicate 1: 4.24e6

dpa [DRSC07604]
- mean viability with MMS: 3.58e6
- viability with MMS, replicate 1: 4.00e6

CG12713 [DRSC09900]
- mean viability with MMS: 3.51e6
- viability with MMS, replicate 1: 3.98e6

CG34296 [DRSC13961]
- mean viability with MMS: 3.52e6
- viability with MMS, replicate 1: 3.99e6

klu [DRSC11357]
- mean viability with MMS: 3.45e6
- viability with MMS, replicate 1: 3.85e6

CG33483 [DRSC14019]
- mean viability with MMS: 3.74e6
- viability with MMS, replicate 1: 4.15e6
